This note sets out measurements from article PMC8754651.

Amino acid sequences for entries named in this document (tags omitted). Residues count along the entry.
UniProt P32780, residues 1-108: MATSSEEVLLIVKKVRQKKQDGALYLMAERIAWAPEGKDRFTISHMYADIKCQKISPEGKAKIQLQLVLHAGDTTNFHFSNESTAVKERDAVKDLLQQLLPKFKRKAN
UniProt P20435, residues 11-34: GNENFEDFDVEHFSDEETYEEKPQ

Results are given in words; binding and its absence hold for the method and conditions named.

The experiment has as its target human TFIIH p62 PH domain (PH-D) (residues 1–108) (human) (UniProt P32780). The experiment can be described thus: ITC; 100∼300 μM RPB6/Rpb6 peptide in the syringe titrated into 10–30 μM p62 PH-D in the cell; 20 mM potassium phosphate (pH 6.8) with or without 25 mM NaCl, 20°C; VP-ITC; both purified. On the technique in general: In ITC the heat of successive injections is recorded.

Turning to “yeast (Saccharomyces cerevisiae) Rpb6 (residues 11–34), NTT peptide (from UniProt P20435 11-34)”, the binding result is “no binding (tested: 100∼300 μM RPB6/Rpb6 in the syringe)”.
